Results from PMC5902610.
These are yes or no findings as the source states them, for the method shown. In cells and extracts the contact can be indirect. Some binding calls cover weakened binding; strength is not graded here.

Protein sequences, listed by entry. Tags and fused reporters are not part of them. Lines headed by an entry give the natural chain unless they say otherwise; changes in a name come on top.
UniProt P26450: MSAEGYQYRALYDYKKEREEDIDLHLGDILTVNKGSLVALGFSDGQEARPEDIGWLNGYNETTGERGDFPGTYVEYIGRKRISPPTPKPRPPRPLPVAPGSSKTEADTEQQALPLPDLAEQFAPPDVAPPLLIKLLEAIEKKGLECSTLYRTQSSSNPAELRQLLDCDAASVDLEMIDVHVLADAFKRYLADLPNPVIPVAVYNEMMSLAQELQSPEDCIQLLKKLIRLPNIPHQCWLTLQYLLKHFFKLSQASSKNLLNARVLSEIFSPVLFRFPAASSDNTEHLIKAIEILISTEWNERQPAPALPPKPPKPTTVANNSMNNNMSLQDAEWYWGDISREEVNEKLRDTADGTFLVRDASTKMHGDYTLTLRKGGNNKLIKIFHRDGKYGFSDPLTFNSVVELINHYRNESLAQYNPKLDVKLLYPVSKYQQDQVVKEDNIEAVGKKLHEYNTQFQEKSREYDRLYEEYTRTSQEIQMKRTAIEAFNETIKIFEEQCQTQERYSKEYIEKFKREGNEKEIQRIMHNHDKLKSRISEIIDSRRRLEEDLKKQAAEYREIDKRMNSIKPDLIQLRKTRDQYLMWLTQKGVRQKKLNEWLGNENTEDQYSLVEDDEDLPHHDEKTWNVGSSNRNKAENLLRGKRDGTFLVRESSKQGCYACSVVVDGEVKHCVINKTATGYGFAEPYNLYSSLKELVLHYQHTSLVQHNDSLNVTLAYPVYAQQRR
UniProt P27986: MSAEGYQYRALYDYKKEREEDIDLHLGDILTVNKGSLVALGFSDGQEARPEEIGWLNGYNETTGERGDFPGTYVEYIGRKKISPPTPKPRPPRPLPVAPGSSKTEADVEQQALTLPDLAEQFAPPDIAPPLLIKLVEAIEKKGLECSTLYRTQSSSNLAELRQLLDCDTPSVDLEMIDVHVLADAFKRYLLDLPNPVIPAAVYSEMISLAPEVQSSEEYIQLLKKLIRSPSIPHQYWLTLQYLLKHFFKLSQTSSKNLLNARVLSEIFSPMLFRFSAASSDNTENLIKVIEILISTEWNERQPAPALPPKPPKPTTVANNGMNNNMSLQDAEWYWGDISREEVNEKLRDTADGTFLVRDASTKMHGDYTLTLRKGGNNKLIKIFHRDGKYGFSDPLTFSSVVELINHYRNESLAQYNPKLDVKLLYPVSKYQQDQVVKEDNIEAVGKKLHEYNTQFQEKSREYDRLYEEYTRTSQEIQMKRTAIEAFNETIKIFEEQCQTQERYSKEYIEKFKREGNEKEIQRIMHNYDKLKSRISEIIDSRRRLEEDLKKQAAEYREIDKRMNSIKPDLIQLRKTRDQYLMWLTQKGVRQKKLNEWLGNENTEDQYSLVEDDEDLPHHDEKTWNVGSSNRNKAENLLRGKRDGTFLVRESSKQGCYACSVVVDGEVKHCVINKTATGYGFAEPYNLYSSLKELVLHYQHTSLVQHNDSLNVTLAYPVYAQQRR
UniProt Q6PHN9: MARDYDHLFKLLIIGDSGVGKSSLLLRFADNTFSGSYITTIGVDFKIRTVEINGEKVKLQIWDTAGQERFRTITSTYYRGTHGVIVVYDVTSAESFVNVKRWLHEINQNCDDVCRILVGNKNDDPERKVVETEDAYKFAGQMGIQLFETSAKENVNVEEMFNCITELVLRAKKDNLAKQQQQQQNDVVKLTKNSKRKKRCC
UniProt Q15286: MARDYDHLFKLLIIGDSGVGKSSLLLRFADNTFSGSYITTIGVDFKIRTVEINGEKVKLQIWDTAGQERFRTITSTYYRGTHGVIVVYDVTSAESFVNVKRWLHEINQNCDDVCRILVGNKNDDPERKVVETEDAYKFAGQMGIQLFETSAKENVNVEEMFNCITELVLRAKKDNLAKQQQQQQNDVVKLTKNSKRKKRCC

What was measured:
[1] = target: p85α, the regulatory subunit of PI3K (mouse (endogenous in MEFs)) (UniProt P26450); experiment: co-IP; serum-starved control MEFs (and p85α−/− p85β−/− double KO MEFs as control), stimulated or not for 10 min with PDGF; 1 mg lysate immunoprecipitated with anti-p85α monoclonal antibody or irrelevant IgG; immunoblot
[2] = target: p85α (endogenous, HeLa) (human (endogenous in HeLa)) (UniProt P27986); experiment: co-IP; serum-starved HeLa cells transfected with EGFP-fused RAB35 WT, S22N or Q67L, mock treated or stimulated with HGF for 10 min; 1 mg lysate immunoprecipitated with anti-p85α antibody or irrelevant IgG; immunoblot

Row | binding [1] | binding [2] | Substance
1 | binds |  | RAB35 (from UniProt Q6PHN9 1-201)
2 |  | no binding | RAB35 S22N fused to EGFP (from UniProt Q15286 1-201)
3 |  | binds | RAB35 WT fused to EGFP (from UniProt Q15286 1-201)
4 |  | binds | RAB35Q67L fused to EGFP (from UniProt Q15286 1-201)
